For assay [1], the target named is human chemokine receptor CXCR2 tagged with mNeonGreen (human) (UniProt P25025). Kind of assay: condition: only with the small-molecule CXCR2 antagonist MVH-46 at high concentrations; FRET or BRET; NanoBRET (NanoLux) in live HEK293A cells as above, CXCL2 or CXCL6 stimulation, with the small-molecule antagonist MVH-46 at high concentrations. (In general: BRET reads energy transfer from a luciferase to a nearby fluorophore.)

The chains behind the UniProt entries cited, without tags or fusion partners.
UniProt P25025: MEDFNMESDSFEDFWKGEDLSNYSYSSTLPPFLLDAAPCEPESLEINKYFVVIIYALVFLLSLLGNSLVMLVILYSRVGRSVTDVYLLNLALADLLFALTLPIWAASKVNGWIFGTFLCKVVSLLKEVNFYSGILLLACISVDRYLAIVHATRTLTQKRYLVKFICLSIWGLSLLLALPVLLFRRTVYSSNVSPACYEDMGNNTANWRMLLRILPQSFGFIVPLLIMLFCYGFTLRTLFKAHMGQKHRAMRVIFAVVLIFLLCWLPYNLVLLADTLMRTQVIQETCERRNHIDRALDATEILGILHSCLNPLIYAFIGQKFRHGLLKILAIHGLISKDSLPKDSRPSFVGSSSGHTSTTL
UniProt P49407: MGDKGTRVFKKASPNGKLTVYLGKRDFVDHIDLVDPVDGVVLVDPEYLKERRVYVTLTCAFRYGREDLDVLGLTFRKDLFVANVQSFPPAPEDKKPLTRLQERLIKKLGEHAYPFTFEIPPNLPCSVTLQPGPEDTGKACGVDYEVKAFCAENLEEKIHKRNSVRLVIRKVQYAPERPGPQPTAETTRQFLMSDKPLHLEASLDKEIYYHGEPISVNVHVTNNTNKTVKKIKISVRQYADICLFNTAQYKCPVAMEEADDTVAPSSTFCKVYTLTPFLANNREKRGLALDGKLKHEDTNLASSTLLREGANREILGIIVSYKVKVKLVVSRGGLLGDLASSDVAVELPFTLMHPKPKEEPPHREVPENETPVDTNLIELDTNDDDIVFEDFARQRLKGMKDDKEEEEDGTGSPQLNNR

Assay [2] shares this target. Kind of assay: FRET or BRET; NanoBRET (NanoLux) in live HEK293A cells co-transfected with β-arrestin1-NLuc (donor) and CXCR2-mNG (acceptor) 1:10; stimulated with ELR+ chemokines (CXCL1-3, CXCL5-8) at their EC80; 37°C; small-molecule antagonists pre-incubated 45 min (15-0.021 µM).

Consider 1 substance from publication PMC12301332, “Biased antagonism of a series of bicyclic CXCR2 intracellular allosteric modulators” (Frontiers in Pharmacology, 2025).

These are yes or no findings as the source states them, for the method shown. In cells and extracts the contact can be indirect. Some results given as binding are weak or reduced against the parent protein; the word gives no strength.

Turning to “β-arrestin1 tagged with nanoluciferase (from UniProt P49407 1-418)”, the figures for the binding entry in assay [1] and in assay [2] were “no binding” and “binds”, respectively.
